Assay results reported in paper PMC6158030.
No constants are given. Whether binding was seen depends on the method and setting. Binding seen in cells or lysates may run through a third protein. Sequences can lack the tags named with a protein.

By UniProt entry, the sequences of proteins in these tests, tags left out. Residues count along the entry.
UniProt P35951, residues 22-862: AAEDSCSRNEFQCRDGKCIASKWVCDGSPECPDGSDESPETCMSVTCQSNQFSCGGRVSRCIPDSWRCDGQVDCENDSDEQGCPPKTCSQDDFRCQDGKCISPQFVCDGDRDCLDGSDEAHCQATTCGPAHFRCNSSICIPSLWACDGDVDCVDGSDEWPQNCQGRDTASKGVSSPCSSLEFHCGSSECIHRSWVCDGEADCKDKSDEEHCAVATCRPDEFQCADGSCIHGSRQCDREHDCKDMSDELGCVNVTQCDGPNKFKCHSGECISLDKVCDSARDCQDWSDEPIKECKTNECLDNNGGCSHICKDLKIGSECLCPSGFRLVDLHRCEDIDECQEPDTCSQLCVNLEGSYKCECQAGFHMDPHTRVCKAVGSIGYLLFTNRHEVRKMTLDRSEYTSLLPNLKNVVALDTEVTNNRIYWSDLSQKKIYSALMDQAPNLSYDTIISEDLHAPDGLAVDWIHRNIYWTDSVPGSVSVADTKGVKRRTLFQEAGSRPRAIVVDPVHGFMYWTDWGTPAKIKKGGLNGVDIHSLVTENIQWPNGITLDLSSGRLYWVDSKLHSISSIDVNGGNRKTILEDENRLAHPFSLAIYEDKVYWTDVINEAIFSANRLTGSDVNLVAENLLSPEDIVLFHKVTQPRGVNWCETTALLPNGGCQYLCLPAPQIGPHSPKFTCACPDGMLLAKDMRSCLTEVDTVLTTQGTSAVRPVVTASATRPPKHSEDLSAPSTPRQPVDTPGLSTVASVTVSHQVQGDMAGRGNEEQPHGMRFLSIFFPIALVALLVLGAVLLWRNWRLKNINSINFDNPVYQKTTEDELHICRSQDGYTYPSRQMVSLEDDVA

Biological target: T1, GST-PID1 fusion protein (murine phosphotyrosine interacting domain-containing protein 1) (mouse) (UniProt Q3UBG2)
T1 sequence: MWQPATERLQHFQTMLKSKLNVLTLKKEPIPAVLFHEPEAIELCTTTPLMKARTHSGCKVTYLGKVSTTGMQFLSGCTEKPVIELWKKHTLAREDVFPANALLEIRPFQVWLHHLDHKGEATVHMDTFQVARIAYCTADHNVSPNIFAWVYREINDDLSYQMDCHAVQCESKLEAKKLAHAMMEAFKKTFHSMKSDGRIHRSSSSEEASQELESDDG
Assay: pull-down; GST-PID1 incubated over night at 4 °C with liver lysates (150 μg) of wild type, LRP1 knockin or liver-specific Lrp1-/- mice; washed six times with PBS; Western blot; only the target purified

binding: no binding
Substance: low-density lipoprotein receptor (LDLR), endogenous in wild type mouse liver (from UniProt P35951 22-862)
